{"sequences": {"note": "Chains of the proteins cited; added tags and fusions are not shown. Lines headed by an entry give the natural chain unless they say otherwise; changes in a name come on top. Residues count along the entry.", "UniProt P19438, residues 30-455": "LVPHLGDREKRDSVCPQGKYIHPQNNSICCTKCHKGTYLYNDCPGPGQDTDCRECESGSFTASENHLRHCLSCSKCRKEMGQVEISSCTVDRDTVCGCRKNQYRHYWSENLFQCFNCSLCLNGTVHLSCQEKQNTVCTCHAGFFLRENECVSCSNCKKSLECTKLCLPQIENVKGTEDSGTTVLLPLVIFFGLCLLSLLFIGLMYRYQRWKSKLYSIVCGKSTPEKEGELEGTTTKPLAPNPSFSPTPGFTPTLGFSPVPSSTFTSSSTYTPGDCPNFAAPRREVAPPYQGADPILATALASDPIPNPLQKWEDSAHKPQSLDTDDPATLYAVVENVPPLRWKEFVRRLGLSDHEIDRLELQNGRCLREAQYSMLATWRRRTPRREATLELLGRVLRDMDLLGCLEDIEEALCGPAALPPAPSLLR", "UniProt Q9NZ08": "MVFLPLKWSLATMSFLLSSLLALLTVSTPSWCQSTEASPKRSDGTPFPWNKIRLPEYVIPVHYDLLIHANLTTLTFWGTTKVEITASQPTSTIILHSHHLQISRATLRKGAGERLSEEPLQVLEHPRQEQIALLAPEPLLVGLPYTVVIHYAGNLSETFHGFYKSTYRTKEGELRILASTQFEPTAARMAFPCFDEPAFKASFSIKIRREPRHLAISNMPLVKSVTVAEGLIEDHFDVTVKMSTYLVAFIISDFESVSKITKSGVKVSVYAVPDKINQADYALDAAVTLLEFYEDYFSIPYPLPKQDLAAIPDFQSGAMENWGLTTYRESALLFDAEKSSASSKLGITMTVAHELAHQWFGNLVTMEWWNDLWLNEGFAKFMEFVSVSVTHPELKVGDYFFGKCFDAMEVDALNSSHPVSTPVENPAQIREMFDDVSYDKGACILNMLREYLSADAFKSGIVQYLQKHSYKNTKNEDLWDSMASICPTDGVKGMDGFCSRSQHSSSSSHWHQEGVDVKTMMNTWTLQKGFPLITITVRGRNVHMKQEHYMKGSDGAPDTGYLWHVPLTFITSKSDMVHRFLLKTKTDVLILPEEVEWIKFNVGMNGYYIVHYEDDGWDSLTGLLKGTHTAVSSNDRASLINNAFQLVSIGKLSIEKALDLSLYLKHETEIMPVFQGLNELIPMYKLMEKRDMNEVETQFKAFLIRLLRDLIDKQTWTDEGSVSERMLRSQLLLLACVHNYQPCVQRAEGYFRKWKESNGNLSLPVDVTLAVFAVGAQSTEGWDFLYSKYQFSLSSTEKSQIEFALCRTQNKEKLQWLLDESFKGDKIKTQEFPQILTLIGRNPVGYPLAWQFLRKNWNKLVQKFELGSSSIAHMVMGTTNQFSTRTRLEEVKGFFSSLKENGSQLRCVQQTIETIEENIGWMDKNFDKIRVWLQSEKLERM"}, "source": "patent US20030215820A1", "key": {"[1]": {"biological_target": "type I, 55 kDa tumor necrosis factor receptor (TNFR1) of NCI-H292 cells (human) (UniProt P19438)", "experiment": "co-immunoprecipitation from NCI-H292 membrane fractions, Western immunoblot"}, "[2]": {"biological_target": "type I, 55 kDa tumor necrosis factor receptor (TNFR1) of NCI-H292 cells (human) (UniProt P19438)", "experiment": "co-immunoprecipitation with anti-TNFR1 antibody from membrane fractions of stably transfected NCI-H292 lines, immunoblot with anti-ARTS-1 antiserum"}}, "note": "Results are given in words; binding and its absence hold for the method and conditions named. In cells and extracts the contact can be indirect. Some entries that bind do so weakly or less than the wild type.", "data": [{"substance": "ARTS-1 polypeptide (aminopeptidase regulator of type I, 55 kDa tumor necrosis factor receptor ectodomain shedding) in NCI-H292 and other human cells (from UniProt Q9NZ08 1-941) (enzyme)", "values": [{"measurement": "binding", "setting": "[1]", "result": "binds"}, {"measurement": "binding", "setting": "[2]", "result": "binds"}]}]}
